{
  "source": "PubChem BioAssay AID651640",
  "about": "(Broad Institute, 2012)",
  "note": "The whole screen tested about 350,000 compounds, of which about 6,000 (1.7%) were called active. This list was built around the results that the source calls inconclusive (neither active nor inactive); the mix of calls is not that of the screen. No stated cut-off is given here; in the data, active means CPE inhibition above about 20% (passing the limit was not always enough); inconclusive means no clear call, values can overlap the other calls; tested in BHK-21 cells.",
  "data": [
    {"test": "protection of cells from dengue 2 killing – plate reader, single concentration, primary screen (AID 651640);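 further: 0% = median of neutral control wells and 100% = median of positive control wells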", "conditions": "DENV2-infected cells, cytopathic effect rescue, at 9.99 µM, hits give high values", "values": [
      {"smiles": "Cc1cccc(NC(=O)Nc2ccc(Cl)cc2)n1", "CPE inhibition": "inactive: 2.12%"},
      {"smiles": "O=C(NCc1ccco1)Nc1cccc([N+](=O)[O-])c1", "CPE inhibition": "inconclusive: 27.6%"},
      {"smiles": "COc1cccc(NC(=O)CN(C)C(=O)Cc2cccc3ccccc23)c1", "CPE inhibition": "inconclusive: 42.7%"},
      {"smiles": "O=C(N1CCOCC1)N1CCN(S(=O)(=O)c2ccc(Cl)cc2)CC1", "CPE inhibition": "inconclusive: 23%"},
      {"smiles": "CCNC(=O)Nc1ccc2c(c1)C(=O)N(C)[C@@H]1CC[C@@H](CC(=O)Nc3ccccc3)O[C@@H]1CO2", "CPE inhibition": "inconclusive: 34.7%"},
      {"smiles": "Cc1cccc(C(=O)O)c1O", "CPE inhibition": "active: 67.5%"},
      {"smiles": "C[C@H](CO)N1C[C@H](C)[C@H](CN(C)S(=O)(=O)c2ccc(F)cc2)OCCCC[C@H](C)Oc2ccc(NC(=O)c3ccncc3)cc2C1=O", "CPE inhibition": "inactive: -2.87%"},
      {"smiles": "CCOC(=O)C1CCCN(C(=O)c2cccc(C(F)(F)F)c2)CC1", "note": "(stereo not given)", "CPE inhibition": "inconclusive: 41.4%"},
      {"smiles": "O=C(C[C@@H]1CC[C@@H](NC(=O)NC2CCCCC2)[C@@H](CO)O1)NCc1ccc(F)cc1", "CPE inhibition": "active: 39.3%"},
      {"smiles": "COc1cc(/C=N/NC(=O)c2ccccn2)cc2c1OCO2", "CPE inhibition": "inactive: -2.46%"},
      {"smiles": "CN1CCN(C(=O)C[C@H]2CC[C@H]3[C@@H](COC[C@H](O)CN3CC3CC3)O2)CC1", "CPE inhibition": "inactive: 0.0205%"},
      {"smiles": "O=C(CCNC(=O)c1ccc(Cl)cc1)Nc1cccc(S(=O)(=O)N2CCCCCC2)c1", "CPE inhibition": "inconclusive: 25%"},
      {"smiles": "C[C@H](CO)N1C[C@H](C)[C@H](CN(C)CC2CC2)Oc2ccc(NS(=O)(=O)c3ccc(F)cc3)cc2CC1=O", "CPE inhibition": "inactive: 7.31%"},
      {"smiles": "CCc1[nH]nc(C(=O)N2CCCC(Nc3cccc(F)c3)C2)c1C", "note": "(stereo not given)", "CPE inhibition": "inconclusive: 21.6%"},
      {"smiles": "Cc1cc(C(=O)N/N=C/c2ccc3c(c2)OCO3)c2ccccc2n1", "CPE inhibition": "inactive: 0.966%"},
      {"smiles": "Cc1noc(C)c1NC(=O)N(C)C[C@@H]1Oc2ncc(C#CC3CCCCC3)cc2C(=O)N([C@H](C)CO)C[C@@H]1C", "CPE inhibition": "inconclusive: 39.6%"},
      {"smiles": "COC(=O)c1cc(C(=O)OC)n(Cc2ccc(F)cc2)c1C", "CPE inhibition": "inactive: 7.73%"},
      {"smiles": "CC(=O)N1CCOc2ccc(S(=O)(=O)NCCc3ccc(C)cc3)cc21", "CPE inhibition": "inconclusive: 31.9%"},
      {"smiles": "C[C@H]1CN([C@@H](C)CO)C(=O)c2cc(-c3ccccc3)cnc2O[C@@H]1CN(C)C(=O)Nc1ccc2c(c1)OCO2", "CPE inhibition": "inactive: -8.52%"},
      {"smiles": "O=C(CSc1ccccn1)Nc1ccc2c(c1)OCCO2", "CPE inhibition": "inconclusive: 20.5%"},
      {"smiles": "Cc1ccc(C(=O)OCC(=O)Nc2ccc(C)c(S(=O)(=O)N3CCCCC3)c2)c(O)c1", "CPE inhibition": "inconclusive: 25.5%"},
      {"smiles": "O=C(N/N=C/c1ccc(OC(=O)c2cccc(Br)c2)cc1)c1cccnc1", "CPE inhibition": "inactive: 14.1%"},
      {"smiles": "Cc1ccc(C)c(N2CCN(CCCNC(=O)CCC(=O)N3CCOc4ccc(Cl)cc43)CC2)c1", "CPE inhibition": "inactive: -0.117%"},
      {"smiles": "COc1ccccc1-n1nnnc1SCC(=O)NC(=O)Cc1ccccc1", "CPE inhibition": "inconclusive: 40.4%"},
      {"smiles": "O=C1CCN(CCc2ccccc2)CCN1[C@H](COc1ccccc1)c1ccccc1", "CPE inhibition": "active: 98.9%"},
      {"smiles": "CCCCN(C(=O)CCCc1nc2ccccc2s1)c1c(N)n(CC(C)C)c(=O)[nH]c1=O", "CPE inhibition": "inconclusive: 33.4%"},
      {"smiles": "CC(C)NC(=O)Nc1ccc2c(c1)C(=O)N([C@@H](C)CO)C[C@H](C)[C@H](CN(C)Cc1ccc(Oc3ccccc3)cc1)O2", "CPE inhibition": "inconclusive: 26.4%"},
      {"smiles": "c1ccc(-c2cc3ccccc3cn2)cc1", "CPE inhibition": "inconclusive: 40.6%"},
      {"smiles": "C[C@@H]1CN([C@H](C)CO)S(=O)(=O)c2ccc(C3=CCCCC3)cc2O[C@H]1CN(C)C(=O)Nc1ccc2c(c1)OCO2", "CPE inhibition": "inactive: 0.434%"},
      {"smiles": "O=C(NCc1ccc(F)cc1)c1cccc(NC2=NC3CS(=O)(=O)CC3S2)c1", "note": "(stereo not given)", "CPE inhibition": "inconclusive: 25.6%"},
      {"smiles": "Cc1ccc(C(=O)N/N=C\\c2cccnc2)s1", "CPE inhibition": "inconclusive: 24.6%"},
      {"smiles": "Cc1noc(C)c1S(=O)(=O)Nc1ccc2c(c1)C(=O)N([C@H](C)CO)C[C@H](C)[C@H](CN(C)Cc1ccncc1)OCCCC[C@@H](C)O2", "CPE inhibition": "active: 26.2%"},
      {"smiles": "CC(C)(O)C#Cc1ccc([C@@H]2[C@@H](CO)N3CCCCN(C(=O)c4ccc(F)cc4)C[C@@H]23)cc1", "CPE inhibition": "active: 82.8%"},
      {"smiles": "C[C@H](CO)N1C[C@H](C)[C@@H](CN(C)CC2CCCCC2)Oc2ccc(NC(=O)NC3CCCCC3)cc2C1=O", "CPE inhibition": "inactive: -16.6%"},
      {"smiles": "Cc1ccccc1C(=O)N1CCc2cc(-c3csc(NC(=O)CN4CCCC4)n3)ccc21", "CPE inhibition": "inactive: 3.59%"},
      {"smiles": "NC(=NCc1ccccc1)NC(=O)c1nc(Cl)c(N)nc1N", "CPE inhibition": "inactive: 4.09%"},
      {"smiles": "OC[C@H]1CC[C@@H]2O[C@H](CCc3ccc(C#Cc4ccccc4)cc3)[C@@H](n3cc(-c4ccccc4)nn3)C[C@@H]2O1", "CPE inhibition": "inactive: 6.78%"},
      {"smiles": "Cn1ccc(NC(=O)Nc2ccc(Cl)cc2Cl)n1", "CPE inhibition": "inconclusive: 33.8%"},
      {"smiles": "C[C@@H]1CN([C@H](C)CO)C(=O)c2cc(C#CCc3ccccc3)cnc2O[C@@H]1CN(C)Cc1cccc(C(=O)O)c1", "CPE inhibition": "inconclusive: 1.32%"},
      {"smiles": "Cc1cc(Cl)c2oc(C(=O)N3CCN(c4ccncc4)CC3)c(C)c2c1", "CPE inhibition": "inconclusive: 22%"},
      {"smiles": "CCOC(=O)C1(Cc2ccccc2C)CCCN(C(=O)c2cc(CC)nn2C)C1", "note": "(stereo not given)", "CPE inhibition": "inactive: 0.578%"},
      {"smiles": "O=C(CN1CCOCC1)N1CCCCN2[C@H](CO)[C@H](c3ccc(/C=C/c4ccccc4)cc3)[C@H]2C1", "CPE inhibition": "active: 53.8%"},
      {"smiles": "COC(=O)c1c(-c2ccc(OC)cc2)oc2ccc(-c3cc(OC)c(OC)c(OC)c3)cc12", "CPE inhibition": "inactive: -10.5%"},
      {"smiles": "O=C(CNC(=O)c1ccccc1Cl)NC1CCN(Cc2ccccc2)CC1", "CPE inhibition": "inconclusive: 39.7%"},
      {"smiles": "CCCN1[C@@H]2Cn3c(ccc(-c4ccncc4)c3=O)[C@H]1[C@@H](C(=O)N1CCCCC1)[C@@H]2CO", "CPE inhibition": "inconclusive: 60.2%"},
      {"smiles": "CC(Oc1cccc(Br)c1)C(=O)NNC(=O)CCS(=O)(=O)c1ccccc1", "note": "(stereo not given)", "CPE inhibition": "inconclusive: 27.7%"},
      {"smiles": "Cc1c2c(nc3ccccc13)OCC2", "CPE inhibition": "inconclusive: 24.8%"},
      {"smiles": "O=C(COC(=O)CCc1nc2ccccc2c(=O)[nH]1)NC(c1ccccc1)c1ccccc1", "CPE inhibition": "inactive: 1.85%"},
      {"smiles": "CCN(CC)S(=O)(=O)c1ccc(OCC(=O)NC2CCS(=O)(=O)C2)c([N+](=O)[O-])c1", "note": "(stereo not given)", "CPE inhibition": "inconclusive: 20.6%"},
      {"smiles": "O=C(CCN1CCCCO1)N1CCCC(Nc2ccc(F)cc2)C1", "note": "(stereo not given)", "CPE inhibition": "inactive: 1.89%"},
      {"smiles": "CC(=O)Nc1cccc(NC(=O)Nc2ccc(C)c(Cl)c2)c1", "CPE inhibition": "inactive: 6.96%"},
      {"smiles": "O=C(NCc1ccncc1)c1cccc(S(=O)(=O)Nc2ccc(SC(F)F)cc2)c1", "CPE inhibition": "inconclusive: 71.4%"},
      {"smiles": "O=C(O)c1cc(O)c2c(c1)C(=O)c1cccc(O)c1C2=O", "CPE inhibition": "active: 78.9%"},
      {"smiles": "C[C@@H]1CCCCO[C@@H](CN(C)C(=O)Nc2ccc(F)cc2)[C@@H](C)CN([C@@H](C)CO)C(=O)c2cc(NC(=O)Nc3ccccc3)ccc2O1", "CPE inhibition": "inconclusive: 22.7%"},
      {"smiles": "O=C(CN1c2cccc3cccc(c23)S1(=O)=O)N1CCN(c2ccc(F)cc2)CC1", "CPE inhibition": "inconclusive: 21.2%"},
      {"smiles": "COc1ccc(NC(=O)N2CCCCN3[C@H](CO)[C@@H](c4ccc(C#Cc5ccccc5)cc4)[C@H]3C2)cc1", "CPE inhibition": "inactive: 4.49%"},
      {"smiles": "CCC(=O)N1C[C@@H](O)COC[C@H]2O[C@@H](CC(=O)NCc3ccc(Oc4ccccc4)cc3)CC[C@@H]21", "CPE inhibition": "inconclusive: 51.9%"},
      {"smiles": "COc1ccc(C#Cc2ccc3c(c2)[C@@H]2[C@@H](CCN2C(=O)CN2CCOCC2)[C@H](CO)N3C)cc1", "CPE inhibition": "inconclusive: 21.5%"},
      {"smiles": "Clc1ccc(-n2ncc3c(NCC4CCCO4)ncnc32)cc1", "note": "(stereo not given)", "CPE inhibition": "inconclusive: 22.9%"},
      {"smiles": "N#C[C@@H]1N[C@H](CO)[C@H]1c1ccc(-c2cccc(F)c2)cc1", "CPE inhibition": "inactive: 11.8%"},
      {"smiles": "CCNC(=O)C1Cc2ccccc2CN1S(=O)(=O)c1ccc(F)cc1", "note": "(stereo not given)", "CPE inhibition": "inconclusive: 21%"},
      {"smiles": "CC1(C)C2(C#N)C(=O)NC(=O)C12C#N", "note": "(stereo not given)", "CPE inhibition": "inconclusive: 59.9%"},
      {"smiles": "CCN1C(=S)N[C@@H](CCc2ccccc2)[C@H](C(=O)OC)[C@H]1C", "CPE inhibition": "active: 65.7%"},
      {"smiles": "CC(C)C#Cc1ccc2c(c1)O[C@H](CN(C)C(=O)C1CC1)[C@@H](C)CN([C@H](C)CO)S2(=O)=O", "CPE inhibition": "inactive: 4.42%"},
      {"smiles": "O=C(C(=O)N1CCN(S(=O)(=O)c2ccccc2)CC1)c1cccc(C(F)(F)F)c1", "CPE inhibition": "inconclusive: 20.5%"},
      {"smiles": "C[C@H]1CN([C@@H](C)CO)C(=O)c2cccc(NC(=O)NC3CCCCC3)c2O[C@@H]1CN(C)Cc1ccc(C(F)(F)F)cc1", "CPE inhibition": "inconclusive: 21.5%"},
      {"smiles": "CSCCC(N=C1NS(=O)(=O)c2ccccc21)C(=O)NCCc1ccccc1", "note": "(stereo not given)", "CPE inhibition": "active: 58.5%"},
      {"smiles": "CCCCCCCCCCCCOC1OC(CO)C(O)C(O)C1NC(C)=O", "note": "(stereo not given)", "CPE inhibition": "active: 23.3%"},
      {"smiles": "CCC1=C(OC(=O)N(CC)CC)N2C(=O)OC(=NCCc3c[nH]c4ccccc34)[C@]2(C)[C@H]2C1=CC[C@H]1C(=O)NC(=O)[C@H]12", "CPE inhibition": "active: 27.2%"},
      {"smiles": "COc1cccc(-c2ccc([C@H]3[C@@H](CO)N4CCCCN(Cc5cncnc5)C[C@H]34)cc2)c1", "CPE inhibition": "active: 38.3%"},
      {"smiles": "C[C@@H]1CCCCO[C@H](CN(C)S(=O)(=O)c2ccccc2)[C@@H](C)CN([C@@H](C)CO)C(=O)c2cc(NC(=O)CCCN(C)C)ccc2O1", "CPE inhibition": "active: 111%"},
      {"smiles": "C[C@@H]1CCCCO[C@@H](CN(C)C)[C@H](C)CN([C@@H](C)CO)C(=O)c2cc(NC(=O)Nc3cccc4ccccc34)ccc2O1", "CPE inhibition": "inconclusive: 29%"},
      {"smiles": "CCOC(=O)C(=CN(CCc1ccccc1)CC(=O)OC)C(=O)OCC", "CPE inhibition": "inconclusive: 59.3%"},
      {"smiles": "O=C(OCC(=O)c1c[nH]c2ccccc12)c1cccc([N+](=O)[O-])c1", "CPE inhibition": "active: 80.1%"},
      {"smiles": "CS(=O)(=O)Nc1ccc2c(c1)[C@@H]1C[C@@H](CC(=O)N3CCCCC3)O[C@H](CO)[C@@H]1O2", "CPE inhibition": "inactive: 16.7%"}
    ]}
  ]
}
